Measurements as given in publication PMC12370185.
The list shows a part of the results.

What follows are sequences tested on KLF4 + histone octamer (assay: EMSA with sequencing). Details: 10 mM Tris-Cl pH 7.5, 50 mM NaCl, 1 mM DTT, 0.25 mg/ml BSA, 2 mM MgCl2, 0.025% Nonidet P-40, 5% glycerol; 28 nM nucleosome library; 10 min on ice then 30 min …; high values mean tight binding; double strand, one strand shown.

Sequence	binding signal (log2 relative supershift)
GATGGACCCTATACGCGGCATGAGCACTCCAGAGGTGGCAGCAAAAGCCACAGCCTGGGTCTATAGCACAAACATCTGGTCAGCACACAGTCACTGCCTTGCCCCACCCATCCCTTTGGCCTCCTCAGGCCTCCAACTGGTGGAGCCTTAGTCCCGCATCCACATGGCCACACCAGAGAAGAGAGCTAGGTGGAGGATGGGTCCCTCCCTTGCCAGTCGGATAGTGTTCC	2.32
GATGGACCCTATACGCGGCCTAAGTGCGGTCTCCAAATCACGATGATCAGCATCACTTGTTGGAACTTGTTGGGAATGCAAATTATCAAGCCCCACCCCAGACCTTTGTGATCTAAAAGCCCTCCAGGTGATTCTGATCCACACTGAAGCACGAGAACCACTGACCTTAGGAACTGTTACCTGTTCCTTTGCTTCCGTAGAGTGAAGTAATGCCAGTCGGATAGTGTTCC	0.786
GATGGACCCTATACGCGGCATGCTGTCTCTCTCACACATACACACATGGGCACATTCACAGGGATGCATACACGCCCCCACACCACATGCTTCCATACACATATGCATACATGAGGGCACATACACACGCCCATGCCACATGCTCACACACATACATGGGCACATACACAGGGGTGCATACACACCCATACCACCTCCTCTCACACACACTGCCAGTCGGATAGTGTTCC	1.03
GATGGACCCTATACGCGGCTGGGGTCTGGATGCCTGGTGTGGCCTCATGCAGACTCTCTGGGCAGGTACCACAGTATGACGCGACAGCTGCTCCGCAAGGCTGACGGGGTGGTGCTCATGTACGACATCACCTCCCAGGAGAGCTTTGCCCACGTGCGCTACTGGCTAGACTGTCTCCAGGTGAGCAGATGGCTGCTGGGGTTGGCCCCATGCCAGTCGGATAGTGTTCC	2.14
GATGGACCCTATACGCGGCGTAGGCAAAGAGGAAGCCCAAGATAGGGGAAGGCCAGGGTGTTGGTTCCTCAGTTTGTTGAAATCAGAGTCATGAAGCAAGACAAGCCAGGGCTTGCTCAGCATTTCTCCTTCCTGGCATGGGTTCACCTCAGCCCCAATTCAGTGGCAGCTCTGTTGGTTCAGAGGGGTGAGGTATCCAAGAGGAGGAAGTGCCAGTCGGATAGTGTTCC	2.41
GATGGACCCTATACGCGGCCCAGGCTGTAGATGTTCCAGGCTCCCCACTGAGGTATCACAGAAGGCTGGGTGGGGAGCTGGCACTTTCATCCTCACCAGTTGATAGTAAGAACCTCCCTCTTCTACGCTGGTACCCATGAAGACCATGTGGGTAGCCTGGACTCCACTCCCACCTGGTGGTAACAAGGCAACCTATCACCAGTGTCAGTGTGCCAGTCGGATAGTGTTCC	1.81
GATGGACCCTATACGCGGCGGAGAGGAAGCCATCAGCGTAGCCATGGTGAGCTTTATCTTTCCCACCCTCGGAAGCACAGACATGGCCCGGCACGTGGCTCACGCCTGTAATCCCAACAGTTTGGGAAGCTGAGGCACGAGGATCGCTTGAGTTCACGAGTCAAGAGTTGGAGACCAGCCTGGGCAACATGGCGACACCTTGTCTGTACTTGCCAGTCGGATAGTGTTCC	2.18
GATGGACCCTATACGCGGCGTATTTGTGCGTGTGTGTGTCTGAGGGTCTGTGTGCATGTGTGTATGTGCTCATGGGTGTGCATTTGTGCACGTGTGTGTGAGTGGCCCAAATGGGCACGCACTGTGTGTCCAGCACACATTGGTTCCCCCATCCCCCTGCACCCCACCCCATCTCCACCCCCCAGGACTTCATACCCATTACCCATGTGCTGCCAGTCGGATAGTGTTCC	2.09
GATGGACCCTATACGCGGCATAGATGGAGAGGATTTCAAGTGATGTTTTCTGAAGATGGTTCTGTTGTCCCGGGAGAGCCCTTGGCGGACATGGTAGTGCCAGTCAGAGCCCTTGACGCTGTGCAGCCAGGTGGCTTATTGTCCCAGTGACTTTCCAACCAGATACTCTCAGTCAGAGTGAAGGGCTCCACTTAGAAACTCCCTTTCCCATGCCAGTCGGATAGTGTTCC	2.22
GATGGACCCTATACGCGGCAGCATGATTCTCGCGATCCGCAGGGCCTCTCGGCTGCTGATCTTCAGCTGGTTGCTGAGAGTTGCAGCATTGCTGAGTCTTAGCAATGGATACTTCCCGATTCCCCTCACAAAAATAGGTCAGTCTGTCTGGCTAGTTCTGTACTTGCAGACACAGGGCATGTGGGGTTCCGGATCCAGCGACTTTACCGGTGCCAGTCGGATAGTGTTCC	0.102
GATGGACCCTATACGCGGCATACATGGCACATACATTTGCCAAAACCAGTGAAATTTACAACACCAAGCATGAACCCTAATGTAAACGCATACTTTGAGTGATAATGATGTGTCTACGTTGGTTCATCAGCTGCAGCAAATGTACCACACTGGTGTGGACAGTGGGGAAGCCTGTGGGTGTAAGGGGAGGGAGTATATGGGAACTGTCTGTGCCAGTCGGATAGTGTTCC	0.432
GATGGACCCTATACGCGGCAGTAAATATTTCAGGCTCTGTGGGTTACGTATCGTTTCTGTTGCAGCAACTCAACTCTGCTCTTGGAGCACAGAAGCAGCCACAAATACGTAAACAAATGGGTGTGGCTGTACACCAGTAAAACTTTACAAAACAAGGAGTGGTCCACGGCCTCAGCGTGCCAGCCTCTGCTCTAAACCGTGACACCCAAATGCCAGTCGGATAGTGTTCC	1.91
GATGGACCCTATACGCGGCGAGGCACAGAGGCCTGAAGGGGACAGAGTGGGCAGGCCAGGTAGGCCGGGAAAGGTTTGAGGTGGGGACAATAGCCCTGCCCCTCCCCCACTCACGCCTTGAGCCCCTCCTTCTTCAGGATCTGCAAGCCGCAGTCCCACGTGTTCCGGTATTTGTGCGCCTCCAGGCCCTATGGGGGACATCAGCAGGCATGCCAGTCGGATAGTGTTCC	1.5
GATGGACCCTATACGCGGCGACCTGCTCTGCAAGGCATCAGATGCCTTCCAGTCAGTAAGAGACAAGAGATACACAGGGTGCTCCCATTCCCACAGCAAGCACCACCCTGCACCACTAGTATTAGCACCACCCACATGGAAGGGTGCCAGACACATACCTACTAGCTGCCTGCCACGCATGGAAAATTCTTTAGGCAATACCCTCCGCACTGCCAGTCGGATAGTGTTCC	0.902
GATGGACCCTATACGCGGCAAACCCCGCCACTTCCCCTTCCTCGGTAAGAGGAACTTGGCGTTGCCCTGACAGGAAAGTCTTGGTGGGGCTTCTCGGAAGCCGCCACCGCTGCACTGCTGAGCAAAACCACAGGTCAGGGGCCAGGCCGGGGGCCAGGCTAGTGAGGACTGGCCATTGATAAAGTCACAGGCTCCATCTAAGCCCATCGGTGCCAGTCGGATAGTGTTCC	1.78
GATGGACCCTATACGCGGCCCGGGCAGAACTACTGAGCGAGGAGCCTATCAGTCCTGGTTCCCAAGCTCCCTGCCCCAGCCTGCCCCTGGCCTCCCAGTGCCTTGGCCTGCCTCACATGCCTGGGCTTGGCCCCAGGTTATCTTCAGAGCCATCCCATCCTGCCTCCCTGACTGACCATGCCACTTCCCGCTCAAAACCTGTCCATGGCTTGCCAGTCGGATAGTGTTCC	0.584
GATGGACCCTATACGCGGCGAAAGCTAGCAGGAGGCGTTGCTCAAGTTCAAAACAATCTGTGCGTGTCCAGGCACGCGCGGAGCCAGACCCCAGCCGCGCGGCTCAGACCTCGCGAGAGCCATCACCTGAGAAATCCACAGCCTTTTCTCATCAGGCTTAGACTGTTTTTCCCATACCTCCAAGAAGGAAGACCCACATGTTAAAACTATTGCCAGTCGGATAGTGTTCC	1.51
GATGGACCCTATACGCGGCTACACACACGCGCACACCCATACACACGCACCATCTAACACAGTTTGTTCTGCCTAAACTTGGAGGCCCCAGCCATGGCTGGACGAATGCAAAAGAGGAGCAGTGGTGCGAATGAGGCAGTGACCATGCCAGGCCAGAGAACTGGGGCTGCCCACTGCTACTCCTCACTGAGTTGCCCTTGGCTTGTGCTATGCCAGTCGGATAGTGTTCC	2.28
GATGGACCCTATACGCGGCCAGGGATGAGTAATTCCACTTGACAGACAGGGAAACCTGAGGACGGTGGTTCTCAGACTTTAGGGGCGTTGCTTCCAGTAAGCAGATGTCTGAGCCACGTGGCAAGGAGGATGAGTCAGCAGGTTTGGGGTGGGGCTGGGTATCTGATGTTTACTCAGACCTCCTCATCCTCATCCTGCAGGTGGGCAGATTGCCAGTCGGATAGTGTTCC	2.12
GATGGACCCTATACGCGGCTCACCCACCCACACATACTCACACATGCCTGCACACGCATACACTCATGCATGCACACACGGTCATCCACCCACATATACACACACATGCACGTTCACATGCACACTCGCATGCACACATGCAGTCACCCACCCACACGTGCACACTCACACACGCATACATAGACATACACACACACGAAGTCACCCACCTGCCAGTCGGATAGTGTTCC	2.06
GATGGACCCTATACGCGGCGCGGAAGCCACCCACCAAGCTCACACAAGGGATGTGGCTGAACATGTGCTGGGCAAACACTAGAGGGTGAGAGTGGGGCTGACTTAGTAAAAGGGACATGTGGCTTGATTTTTAGTGAAATACCATAGTGTCACAACTAGTGCTGTCTCTGCCCCACGCCAAAAGGAAAAGTCAAGTGAAATAGGCTGGGTTGCCAGTCGGATAGTGTTCC	2.44
GATGGACCCTATACGCGGCAACACAAACATCCAGTCCATCGCACTGTTCTTCAAACATGCCATGGTGCTCCCCACTCCTGGCCCTTGCACGTGCTCTTCCTTCCACTTAGGATGCCATCTCCGTGCTCCACCCACCTCCTGTGAGTCAGCCTAACACCCTGCTCCTTCAATGGCCAGCCTAAGTATCTCCACCTCTAGGATGCCTCCCTGTGCCAGTCGGATAGTGTTCC	1.2
GATGGACCCTATACGCGGCTACTATATAGCTACTCCCCTCTAATATGCACTCTAAGCCCCACCCTTACTGCACTGCTCCACCCTGTGTCTCACCACCATGTGTTTGCTCATGCTGTTCTCTTGGCTTCTCCCCACATCTTGCACCCTTGCTATTAAACTCCTAATGTTTCTTCAAAGTACAGTTCAAAGATCACTTCCTCTTGGGCATATTGCCAGTCGGATAGTGTTCC	1.13
GATGGACCCTATACGCGGCGCTGGTGTATGCTGGGAGCTATGCAGGCGTAGGGTGTGTCCTGGGCCAGAGGACACAGCACATGCTTAGGCTTGGGAGAAAGGACACTCGCCTGTGATGGGAGAGGCACTCATATTTGGGTCTGTGGTCTGGGCTGTGTGGGTGGGACACAGGGTGTGGACCTGGGTGGATCTTAAGGAGGGTGGATGGCATGCCAGTCGGATAGTGTTCC	2.02

Quoted at random: two records from the list
Sequence	binding signal (log2 relative supershift)
GATGGACCCTATACGCGGCAACACAAACATCCAGTCCATCGCACTGTTCTTCAAACATGCCATGGTGCTCCCCACTCCTGGCCCTTGCACGTGCTCTTCCTTCCACTTAGGATGCCATCTCCGTGCTCCACCCACCTCCTGTGAGTCAGCCTAACACCCTGCTCCTTCAATGGCCAGCCTAAGTATCTCCACCTCTAGGATGCCTCCCTGTGCCAGTCGGATAGTGTTCC	1.2
GATGGACCCTATACGCGGCAGCATGATTCTCGCGATCCGCAGGGCCTCTCGGCTGCTGATCTTCAGCTGGTTGCTGAGAGTTGCAGCATTGCTGAGTCTTAGCAATGGATACTTCCCGATTCCCCTCACAAAAATAGGTCAGTCTGTCTGGCTAGTTCTGTACTTGCAGACACAGGGCATGTGGGGTTCCGGATCCAGCGACTTTACCGGTGCCAGTCGGATAGTGTTCC	0.102
